From PMC10617209
These are yes or no findings as the source states them, for the method shown. For part of these data: Binding seen in cells or lysates may run through a third protein. Some entries that bind do so weakly or less than the wild type. For part of these data: Tags and fused reporters may be left off the sequences shown.

The chains behind the UniProt entries cited, without tags or fusion partners.
UniProt P08050: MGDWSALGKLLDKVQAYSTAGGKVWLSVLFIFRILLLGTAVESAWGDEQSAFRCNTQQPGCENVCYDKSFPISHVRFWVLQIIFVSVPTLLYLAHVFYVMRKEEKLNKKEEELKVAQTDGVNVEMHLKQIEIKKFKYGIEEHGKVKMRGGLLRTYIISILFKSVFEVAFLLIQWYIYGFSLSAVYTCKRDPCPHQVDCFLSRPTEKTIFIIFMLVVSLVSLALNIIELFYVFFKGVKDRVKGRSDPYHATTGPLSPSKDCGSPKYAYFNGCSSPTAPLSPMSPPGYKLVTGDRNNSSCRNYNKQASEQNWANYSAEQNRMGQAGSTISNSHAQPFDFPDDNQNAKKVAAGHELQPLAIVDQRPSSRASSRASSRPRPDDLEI
UniProt P40337: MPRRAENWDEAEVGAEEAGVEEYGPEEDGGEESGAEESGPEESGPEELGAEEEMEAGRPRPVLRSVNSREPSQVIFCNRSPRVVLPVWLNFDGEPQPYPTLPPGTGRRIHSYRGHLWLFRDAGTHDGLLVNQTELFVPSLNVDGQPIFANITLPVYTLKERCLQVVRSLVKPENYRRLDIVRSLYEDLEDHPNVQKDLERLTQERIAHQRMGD
UniProt P17302: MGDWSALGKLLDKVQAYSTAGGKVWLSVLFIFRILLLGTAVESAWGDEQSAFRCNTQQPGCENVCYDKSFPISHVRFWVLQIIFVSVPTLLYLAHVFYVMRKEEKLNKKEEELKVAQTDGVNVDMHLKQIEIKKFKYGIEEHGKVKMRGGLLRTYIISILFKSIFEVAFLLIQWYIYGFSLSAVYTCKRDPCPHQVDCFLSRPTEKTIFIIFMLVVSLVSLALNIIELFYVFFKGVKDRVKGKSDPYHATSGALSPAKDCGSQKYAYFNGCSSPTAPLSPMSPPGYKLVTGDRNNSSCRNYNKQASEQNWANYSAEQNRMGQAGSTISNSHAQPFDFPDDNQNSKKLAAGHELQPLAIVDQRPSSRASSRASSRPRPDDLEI

Tests used:
[1] = target: T1, mixed lineage kinase domain-like protein (MLKL), rat, endogenous in thalamic VPN (rat (endogenous in Sprague-Dawley rat thalamus)) (UniProt D3ZKP6); assay: Western blot of multimers; MLKL and pMLKL multimers on immunoblots of rat VPN extract after dMCAO
T1 sequence: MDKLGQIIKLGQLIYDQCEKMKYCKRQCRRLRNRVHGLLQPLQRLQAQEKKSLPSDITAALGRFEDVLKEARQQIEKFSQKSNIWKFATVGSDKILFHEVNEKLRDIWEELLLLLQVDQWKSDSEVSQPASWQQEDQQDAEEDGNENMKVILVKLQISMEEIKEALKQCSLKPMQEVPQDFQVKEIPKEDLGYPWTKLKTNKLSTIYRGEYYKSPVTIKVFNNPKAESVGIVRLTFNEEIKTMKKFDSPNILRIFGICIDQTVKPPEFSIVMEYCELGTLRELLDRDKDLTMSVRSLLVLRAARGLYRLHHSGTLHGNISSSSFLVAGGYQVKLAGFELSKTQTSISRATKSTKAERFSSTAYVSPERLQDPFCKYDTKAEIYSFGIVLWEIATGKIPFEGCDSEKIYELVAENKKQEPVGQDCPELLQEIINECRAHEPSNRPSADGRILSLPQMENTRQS

[2] = target: connexin 43 (Cx43), rat, endogenous in thalamic VPN (rat (endogenous in Sprague-Dawley rat thalamus)) (UniProt P08050); assay: co-IP; lysate of rat thalamic VPN, Sham and 2 weeks after dMCAO; antibody on Dynabeads, incubated with the extract at 4 °C for 2 h, washed thrice with PBST; Western blot
[3] = target: human Von Hippel-Lindau (VHL), coding sequence in plasmid CMV-MCS-V5-SV40-neomycin (human) (UniProt P40337); assay: co-IP; lysate of SH-SY5Y cells transfected with plasmids (MLKL WT or S454A, Cx43, VHL), without or with TSZ for 10 h; antibody on Dynabeads, 4 °C for 2 h, washed thrice with PBST; Western blot
[4] = target: human connexin 43 (Cx43, GJA1) (WT), full-length coding sequence in plasmid CMV-MCS-Myc-SV40-neomycin (human) (UniProt P17302); assay: as above

B1: mixed lineage kinase domain-like protein (MLKL), rat, endogenous in thalamic VPN (protein, UniProt D3ZKP6 1-462)
chain: MDKLGQIIKLGQLIYDQCEKMKYCKRQCRRLRNRVHGLLQPLQRLQAQEKKSLPSDITAALGRFEDVLKEARQQIEKFSQKSNIWKFATVGSDKILFHEVNEKLRDIWEELLLLLQVDQWKSDSEVSQPASWQQEDQQDAEEDGNENMKVILVKLQISMEEIKEALKQCSLKPMQEVPQDFQVKEIPKEDLGYPWTKLKTNKLSTIYRGEYYKSPVTIKVFNNPKAESVGIVRLTFNEEIKTMKKFDSPNILRIFGICIDQTVKPPEFSIVMEYCELGTLRELLDRDKDLTMSVRSLLVLRAARGLYRLHHSGTLHGNISSSSFLVAGGYQVKLAGFELSKTQTSISRATKSTKAERFSSTAYVSPERLQDPFCKYDTKAEIYSFGIVLWEIATGKIPFEGCDSEKIYELVAENKKQEPVGQDCPELLQEIINECRAHEPSNRPSADGRILSLPQMENTRQS
binding [1]: binds | binding [2]: binds

B2: human MLKL (WT), full-length coding sequence in plasmid CMV-MCS-3FLAG-SV40-neomycin (protein, UniProt Q8NB16 1-471)
chain: MENLKHIITLGQVIHKRCEEMKYCKKQCRRLGHRVLGLIKPLEMLQDQGKRSVPSEKLTTAMNRFKAALEEANGEIEKFSNRSNICRFLTASQDKILFKDVNRKLSDVWKELSLLLQVEQRMPVSPISQGASWAQEDQQDADEDRRAFQMLRRDNEKIEASLRRLEINMKEIKETLRQYLPPKCMQEIPQEQIKEIKKEQLSGSPWILLRENEVSTLYKGEYHRAPVAIKVFKKLQAGSIAIVRQTFNKEIKTMKKFESPNILRIFGICIDETVTPPQFSIVMEYCELGTLRELLDREKDLTLGKRMVLVLGAARGLYRLHHSEAPELHGKIRSSNFLVTQGYQVKLAGFELRKTQTSMSLGTTREKTDRVKSTAYLSPQELEDVFYQYDVKSEIYSFGIVLWEIATGDIPFQGCNSEKIRKLVAVKRQQEPLGEDCPSELREIIDECRAHDPSVRPSVDEILKKLSTFSK
binding [3]: binds | binding [4]: binds

B3: human MLKL (S454A), full-length coding sequence in plasmid CMV-MCS-3FLAG-SV40-neomycin (protein, UniProt Q8NB16 1-471)
chain: MENLKHIITLGQVIHKRCEEMKYCKKQCRRLGHRVLGLIKPLEMLQDQGKRSVPSEKLTTAMNRFKAALEEANGEIEKFSNRSNICRFLTASQDKILFKDVNRKLSDVWKELSLLLQVEQRMPVSPISQGASWAQEDQQDADEDRRAFQMLRRDNEKIEASLRRLEINMKEIKETLRQYLPPKCMQEIPQEQIKEIKKEQLSGSPWILLRENEVSTLYKGEYHRAPVAIKVFKKLQAGSIAIVRQTFNKEIKTMKKFESPNILRIFGICIDETVTPPQFSIVMEYCELGTLRELLDREKDLTLGKRMVLVLGAARGLYRLHHSEAPELHGKIRSSNFLVTQGYQVKLAGFELRKTQTSMSLGTTREKTDRVKSTAYLSPQELEDVFYQYDVKSEIYSFGIVLWEIATGDIPFQGCNSEKIRKLVAVKRQQEPLGEDCPSELREIIDECRAHDPAVRPSVDEILKKLSTFSK
binding [3]: binds | binding [4]: binds
